Test [1] addresses T1, eGFP-GGSG-Flag-RBM20-WT (human) (UniProt Q5T481).
T1 sequence: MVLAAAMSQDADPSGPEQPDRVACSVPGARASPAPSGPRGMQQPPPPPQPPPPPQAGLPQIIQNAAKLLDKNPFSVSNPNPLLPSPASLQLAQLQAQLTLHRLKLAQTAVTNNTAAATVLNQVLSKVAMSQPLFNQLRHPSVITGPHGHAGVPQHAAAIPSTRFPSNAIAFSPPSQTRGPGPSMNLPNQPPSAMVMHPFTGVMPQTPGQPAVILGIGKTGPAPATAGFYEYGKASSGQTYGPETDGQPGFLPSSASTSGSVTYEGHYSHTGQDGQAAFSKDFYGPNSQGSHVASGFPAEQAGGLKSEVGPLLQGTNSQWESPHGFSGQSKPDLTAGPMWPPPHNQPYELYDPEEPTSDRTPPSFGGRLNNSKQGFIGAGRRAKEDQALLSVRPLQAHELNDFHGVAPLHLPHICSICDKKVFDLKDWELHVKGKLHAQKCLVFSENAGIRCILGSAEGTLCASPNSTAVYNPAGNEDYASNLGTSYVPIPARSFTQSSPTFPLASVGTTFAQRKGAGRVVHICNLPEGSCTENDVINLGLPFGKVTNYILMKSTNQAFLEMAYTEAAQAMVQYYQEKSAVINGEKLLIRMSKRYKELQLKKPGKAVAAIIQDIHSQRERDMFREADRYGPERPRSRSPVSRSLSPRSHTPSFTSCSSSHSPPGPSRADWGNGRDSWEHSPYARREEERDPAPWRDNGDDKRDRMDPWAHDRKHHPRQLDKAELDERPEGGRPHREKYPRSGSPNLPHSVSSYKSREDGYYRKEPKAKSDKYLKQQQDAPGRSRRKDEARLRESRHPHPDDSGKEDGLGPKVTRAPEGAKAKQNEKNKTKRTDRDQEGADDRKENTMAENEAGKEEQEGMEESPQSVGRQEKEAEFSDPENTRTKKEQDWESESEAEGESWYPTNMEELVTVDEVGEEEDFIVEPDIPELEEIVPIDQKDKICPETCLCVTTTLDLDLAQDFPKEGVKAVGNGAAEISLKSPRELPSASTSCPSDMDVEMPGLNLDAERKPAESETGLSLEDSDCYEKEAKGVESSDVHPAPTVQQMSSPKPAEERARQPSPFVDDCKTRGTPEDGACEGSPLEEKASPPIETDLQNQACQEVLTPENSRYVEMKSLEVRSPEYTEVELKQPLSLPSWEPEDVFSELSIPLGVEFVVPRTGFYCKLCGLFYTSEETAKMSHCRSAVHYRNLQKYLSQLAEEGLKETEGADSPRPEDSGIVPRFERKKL
Description: affinity purification with mass spectrometry; GFP-Trap magnetic particles, 1 mg of nuclear and insoluble fraction of HeLa expressing eGFP-RBM20 (WT, P633L, R634Q, RSS), 4 °C 3 h; washes with 150 mM NaCl, 0.1% NP-40; TMT LC-MS/MS; hits against a no-bait control.

Sequences of proteins named here, by UniProt entry; tags and fusion partners are left off.
UniProt P38159: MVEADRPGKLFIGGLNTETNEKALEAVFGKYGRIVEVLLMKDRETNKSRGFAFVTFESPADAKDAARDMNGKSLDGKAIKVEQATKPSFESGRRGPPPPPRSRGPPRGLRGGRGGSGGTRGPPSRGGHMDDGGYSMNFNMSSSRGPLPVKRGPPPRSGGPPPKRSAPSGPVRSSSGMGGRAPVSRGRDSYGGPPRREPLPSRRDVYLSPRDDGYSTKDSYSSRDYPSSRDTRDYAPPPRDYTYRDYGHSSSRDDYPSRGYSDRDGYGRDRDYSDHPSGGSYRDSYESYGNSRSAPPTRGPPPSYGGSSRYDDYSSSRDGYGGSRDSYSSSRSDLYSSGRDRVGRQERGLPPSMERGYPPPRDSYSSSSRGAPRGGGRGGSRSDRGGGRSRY
UniProt O14646: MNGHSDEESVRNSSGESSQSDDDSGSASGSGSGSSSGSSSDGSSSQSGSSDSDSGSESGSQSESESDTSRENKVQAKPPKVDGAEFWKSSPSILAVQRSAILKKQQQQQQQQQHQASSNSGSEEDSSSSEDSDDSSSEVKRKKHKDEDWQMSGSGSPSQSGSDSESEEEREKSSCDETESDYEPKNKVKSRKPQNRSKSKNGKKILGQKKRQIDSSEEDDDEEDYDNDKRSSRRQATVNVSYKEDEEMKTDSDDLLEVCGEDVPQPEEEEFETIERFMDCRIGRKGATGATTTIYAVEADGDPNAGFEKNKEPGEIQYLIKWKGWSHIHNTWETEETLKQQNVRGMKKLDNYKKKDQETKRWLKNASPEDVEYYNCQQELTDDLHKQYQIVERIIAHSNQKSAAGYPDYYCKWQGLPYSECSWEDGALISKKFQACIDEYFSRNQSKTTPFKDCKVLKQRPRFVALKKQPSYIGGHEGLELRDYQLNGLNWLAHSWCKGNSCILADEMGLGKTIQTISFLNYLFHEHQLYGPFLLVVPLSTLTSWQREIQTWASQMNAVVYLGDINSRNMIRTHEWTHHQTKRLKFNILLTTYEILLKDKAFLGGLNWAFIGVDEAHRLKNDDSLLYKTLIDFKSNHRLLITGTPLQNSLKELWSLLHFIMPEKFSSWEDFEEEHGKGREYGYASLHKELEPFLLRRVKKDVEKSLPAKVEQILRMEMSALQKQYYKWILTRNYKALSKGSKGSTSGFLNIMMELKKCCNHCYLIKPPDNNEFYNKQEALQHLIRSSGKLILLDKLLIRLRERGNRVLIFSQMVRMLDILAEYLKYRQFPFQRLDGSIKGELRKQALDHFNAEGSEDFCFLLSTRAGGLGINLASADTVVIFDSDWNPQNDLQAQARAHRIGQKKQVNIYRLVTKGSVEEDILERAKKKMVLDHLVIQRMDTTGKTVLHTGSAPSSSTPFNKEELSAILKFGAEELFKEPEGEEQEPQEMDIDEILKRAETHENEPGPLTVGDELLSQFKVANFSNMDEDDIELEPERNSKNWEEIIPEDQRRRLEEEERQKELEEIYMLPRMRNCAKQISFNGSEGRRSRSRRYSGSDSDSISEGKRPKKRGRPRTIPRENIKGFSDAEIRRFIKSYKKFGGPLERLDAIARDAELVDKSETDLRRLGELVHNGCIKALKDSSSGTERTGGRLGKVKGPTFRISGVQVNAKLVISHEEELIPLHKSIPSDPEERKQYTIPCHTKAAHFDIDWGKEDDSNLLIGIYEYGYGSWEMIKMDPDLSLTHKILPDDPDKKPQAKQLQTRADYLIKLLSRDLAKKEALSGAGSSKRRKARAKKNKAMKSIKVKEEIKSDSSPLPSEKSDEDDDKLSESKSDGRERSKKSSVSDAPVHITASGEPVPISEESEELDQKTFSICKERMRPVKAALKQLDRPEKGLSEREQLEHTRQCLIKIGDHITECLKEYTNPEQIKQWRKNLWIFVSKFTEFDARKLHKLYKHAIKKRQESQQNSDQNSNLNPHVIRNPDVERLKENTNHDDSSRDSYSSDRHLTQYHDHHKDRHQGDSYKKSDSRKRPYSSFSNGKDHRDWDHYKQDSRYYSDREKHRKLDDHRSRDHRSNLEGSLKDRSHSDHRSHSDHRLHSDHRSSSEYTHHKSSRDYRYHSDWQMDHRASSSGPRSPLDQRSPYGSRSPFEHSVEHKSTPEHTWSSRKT

For test [2], the target named is T2, eGFP-GGSG-Flag-RBM20-R634Q (human) (UniProt Q5T481).
T2 sequence: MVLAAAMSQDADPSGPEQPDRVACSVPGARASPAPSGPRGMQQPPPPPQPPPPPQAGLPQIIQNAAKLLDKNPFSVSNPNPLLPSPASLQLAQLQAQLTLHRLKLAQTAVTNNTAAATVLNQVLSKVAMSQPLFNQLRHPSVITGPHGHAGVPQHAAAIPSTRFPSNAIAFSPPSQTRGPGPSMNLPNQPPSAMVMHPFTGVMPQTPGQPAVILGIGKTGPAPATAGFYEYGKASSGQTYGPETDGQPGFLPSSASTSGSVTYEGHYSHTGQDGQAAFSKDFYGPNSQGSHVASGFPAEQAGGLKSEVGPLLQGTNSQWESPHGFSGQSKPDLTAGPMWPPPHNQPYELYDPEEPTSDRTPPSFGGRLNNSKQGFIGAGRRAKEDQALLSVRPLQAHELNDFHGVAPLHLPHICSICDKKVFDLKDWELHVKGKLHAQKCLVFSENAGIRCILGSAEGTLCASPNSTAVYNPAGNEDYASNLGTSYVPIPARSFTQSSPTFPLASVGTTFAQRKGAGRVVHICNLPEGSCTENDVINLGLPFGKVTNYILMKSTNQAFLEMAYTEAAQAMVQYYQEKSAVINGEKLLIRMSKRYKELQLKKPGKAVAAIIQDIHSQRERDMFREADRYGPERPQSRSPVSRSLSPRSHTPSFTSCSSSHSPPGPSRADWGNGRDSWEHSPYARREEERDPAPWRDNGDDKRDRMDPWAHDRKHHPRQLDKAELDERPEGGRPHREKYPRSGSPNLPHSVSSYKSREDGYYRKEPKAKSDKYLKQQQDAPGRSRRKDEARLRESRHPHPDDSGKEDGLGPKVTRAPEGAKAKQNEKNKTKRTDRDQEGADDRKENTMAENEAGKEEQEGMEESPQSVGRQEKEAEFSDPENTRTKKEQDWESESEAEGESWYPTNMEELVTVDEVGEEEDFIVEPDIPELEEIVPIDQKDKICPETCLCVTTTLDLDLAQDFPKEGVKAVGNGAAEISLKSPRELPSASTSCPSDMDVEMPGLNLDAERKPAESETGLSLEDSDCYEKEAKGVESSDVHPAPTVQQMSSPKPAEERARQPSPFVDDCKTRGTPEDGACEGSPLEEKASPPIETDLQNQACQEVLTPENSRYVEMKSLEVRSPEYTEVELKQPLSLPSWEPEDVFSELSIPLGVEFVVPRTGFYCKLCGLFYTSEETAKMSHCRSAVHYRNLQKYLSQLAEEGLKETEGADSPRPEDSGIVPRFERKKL
Nature of the test: affinity purification with mass spectrometry; GFP-Trap magnetic particles, 1 mg of cytoplasmic fraction of HeLa expressing eGFP-RBM20 (WT, P633L, R634Q, RSS), 4 °C 3 h; washes with 150 mM NaCl, 0.1% NP-40; TMT LC-MS/MS; hits against a no-bait control.

These are yes or no findings as the source states them, for the method shown. In cells and extracts the contact can be indirect. Here binding means that the protein was enriched with, or labelled near, the bait; the list need not be complete. For some assays here: No binding means not detected with the bait. Where a sequence is shown, tags or fusion partners need not be part of it.

As for RBMX (from UniProt P38159 1-391), in test [1], the binding entry is recorded as “binds”.

As for CHD1 (from UniProt O14646 1-1710), the binding result in test [2] is given as “no binding”.

B1: RBM14 (protein, UniProt Q96PK6 1-669)
chain: MKIFVGNVDGADTTPEELAALFAPYGTVMSCAVMKQFAFVHMRENAGALRAIEALHGHELRPGRALVVEMSRPRPLNTWKIFVGNVSAACTSQELRSLFERRGRVIECDVVKDYAFVHMEKEADAKAAIAQLNGKEVKGKRINVELSTKGQKKGPGLAVQSGDKTKKPGAGDTAFPGTGGFSATFDYQQAFGNSTGGFDGQARQPTPPFFGRDRSPLRRSPPRASYVAPLTAQPATYRAQPSVSLGAAYRAQPSASLGVGYRTQPMTAQAASYRAQPSVSLGAPYRGQLASPSSQSAAASSLGPYGGAQPSASALSSYGGQAAAASSLNSYGAQGSSLASYGNQPSSYGAQAASSYGVRAAASSYNTQGAASSLGSYGAQAASYGAQSAASSLAYGAQAASYNAQPSASYNAQSAPYAAQQAASYSSQPAAYVAQPATAAAYASQPAAYAAQATTPMAGSYGAQPVVQTQLNSYGAQASMGLSGSYGAQSAAAATGSYGAAAAYGAQPSATLAAPYRTQSSASLAASYAAQQHPQAAASYRGQPGNAYDGAGQPSAAYLSMSQGAVANANSTPPPYERTRLSPPRASYDDPYKKAVAMSKRYGSDRRLAELSDYRRLSESQLSFRRSPTKSSLDYRRLPDAHSDYARYSGSYNDYLRAAQMHSGYQRRM
In the case of B1, the binding entry in test [1] was “binds”.

B2: MOV10 (protein, UniProt Q9HCE1 1-1003)
chain: MPSKFSCRQLREAGQCFESFLVVRGLDMETDRERLRTIYNRDFKISFGTPAPGFSSMLYGMKIANLAYVTKTRVRFFRLDRWADVRFPEKRRMKLGSDISKHHKSLLAKIFYDRAEYLHGKHGVDVEVQGPHEARDGQLLIRLDLNRKEVLTLRLRNGGTQSVTLTHLFPLCRTPQFAFYNEDQELPCPLGPGECYELHVHCKTSFVGYFPATVLWELLGPGESGSEGAGTFYIARFLAAVAHSPLAAQLKPMTPFKRTRITGNPVVTNRIEEGERPDRAKGYDLELSMALGTYYPPPRLRQLLPMLLQGTSIFTAPKEIAEIKAQLETALKWRNYEVKLRLLLHLEELQMEHDIRHYDLESVPMTWDPVDQNPRLLTLEVPGVTESRPSVLRGDHLFALLSSETHQEDPITYKGFVHKVELDRVKLSFSMSLLSRFVDGLTFKVNFTFNRQPLRVQHRALELTGRWLLWPMLFPVAPRDVPLLPSDVKLKLYDRSLESNPEQLQAMRHIVTGTTRPAPYIIFGPPGTGKTVTLVEAIKQVVKHLPKAHILACAPSNSGADLLCQRLRVHLPSSIYRLLAPSRDIRMVPEDIKPCCNWDAKKGEYVFPAKKKLQEYRVLITTLITAGRLVSAQFPIDHFTHIFIDEAGHCMEPESLVAIAGLMEVKETGDPGGQLVLAGDPRQLGPVLRSPLTQKHGLGYSLLERLLTYNSLYKKGPDGYDPQFITKLLRNYRSHPTILDIPNQLYYEGELQACADVVDRERFCRWAGLPRQGFPIIFHGVMGKDEREGNSPSFFNPEEAATVTSYLKLLLAPSSKKGKARLSPRSVGVISPYRKQVEKIRYCITKLDRELRGLDDIKDLKVGSVEEFQGQERSVILISTVRSSQSFVQLDLDFNLGFLKNPKRFNVAVTRAKALLIIVGNPLLLGHDPDWKVFLEFCKENGGYTGCPFPAKLDLQQGQNLLQGLSKLSPSTSGPHSHDYLPQEREGEGGLSLQVEPEWRNEL
B2: in test [2], the binding entry is recorded as “binds”.

B3: RBM15 (protein, UniProt Q96T37 1-977)
chain: MRTAGRDPVPRRSPRWRRAVPLCETSAGRRVTQLRGDDLRRPATMKGKERSPVKAKRSRGGEDSTSRGERSKKLGGSGGSNGSSSGKTDSGGGSRRSLHLDKSSSRGGSREYDTGGGSSSSRLHSYSSPSTKNSSGGGESRSSSRGGGGESRSSGAASSAPGGGDGAEYKTLKISELGSQLSDEAVEDGLFHEFKRFGDVSVKISHLSGSGSGDERVAFVNFRRPEDARAAKHARGRLVLYDRPLKIEAVYVSRRRSRSPLDKDTYPPSASVVGASVGGHRHPPGGGGGQRSLSPGGAALGYRDYRLQQLALGRLPPPPPPPLPRDLERERDYPFYERVRPAYSLEPRVGAGAGAAPFREVDEISPEDDQRANRTLFLGNLDITVTESDLRRAFDRFGVITEVDIKRPSRGQTSTYGFLKFENLDMSHRAKLAMSGKIIIRNPIKIGYGKATPTTRLWVGGLGPWVPLAALAREFDRFGTIRTIDYRKGDSWAYIQYESLDAAHAAWTHMRGFPLGGPDRRLRVDFADTEHRYQQQYLQPLPLTHYELVTDAFGHRAPDPLRGARDRTPPLLYRDRDRDLYPDSDWVPPPPPVRERSTRTAATSVPAYEPLDSLDRRRDGWSLDRDRGDRDLPSSRDQPRKRRLPEESGGRHLDRSPESDRPRKRHCAPSPDRSPELSSSRDRYNSDNDRSSRLLLERPSPIRDRRGSLEKSQGDKRDRKNSASAERDRKHRTTAPTEGKSPLKKEDRSDGSAPSTSTASSKLKSPSQKQDGGTAPVASASPKLCLAWQGMLLLKNSNFPSNMHLLQGDLQVASSLLVEGSTGGKVAQLKITQRLRLDQPKLDEVTRRIKVAGPNGYAILLAVPGSSDSRSSSSSAASDTATSTQRPLRNLVSYLKQKQAAGVISLPVGGNKDKENTGVLHAFPPCEFSQQFLDSPAKALAKSEEDYLVMIIVRGFGFQIGVRYENKKRENLALTLL
On to B3, for which, in test [1], the binding entry is recorded as “binds”.

The record behind these values is PMC10353998 (2023).
